{"source": "patent US8686115B2", "about": "“Compositions and methods for quantitatively monitoring lipids” (The Board of Trustees of the University of Illinois, priority 2009, dated 2014)", "molecules": {"B1": {"name": "DAN-eENTH: eENTH (M10C, C96A, S4W) linked via C10 to 2-dimethylamino-6-acyl-naphthalene (DAN); PtdIns(4,5)P2 sensor (conjugate)", "chain": "MSTWSLRRQCKNIVHNYSEAEIKVREATSNDPWGPSSSLMSEIADLTYNVVAFSEIMSMIWKRLNDHGKNWRHVYKAMTLMEYLIKTGSERVSQQAKENMYAVQTLKDFQYVDRDGKDQGVNVREKAKQLVALLRDEDRLREERAHALKTKEKLAQTA", "modifications": "DAN fluorophore on Cys10; Modified ENTH domain of Epsin 1.", "notes": "eENTH (M10C, C96A, S4W) linked via C10 to 2-dimethylamino-6-acyl-naphthalene (DAN); PtdIns(4,5)P2 sensor"}}, "experiment": "Spectrofluorometry of sensor with LUVs (F450, F450/F520)", "assay_type": "binding"}
{"molecule": "B1", "values": [{"measurement": "(F450/F520)max", "setting": "LUV, FIG. 4c", "value": "5.0+/−0.3"}, {"measurement": "change in fluorescence emission upon membrane binding", "setting": "POPC/POPS/PtdIns(4,5)P2 (80-x:20:x) LUV, not with vesicles containing any other phosphoinositide", "value": "dramatic blue-shift with a maximal increase in emission intensity (F) at 460 nm"}]}
